US20190322643A1 (Georgia State University Research Foundation, Inc., priority 2016, published 2019)

How the values were obtained:
Assay type in all cases: cell-based
MCF-7 = assay: Cytotoxicity / anti-proliferation assay (CCK-8), MCF-7; conditions: Homo sapiens, MCF7; 72 h, CCK-8 kit
Experimental: (§1) A549, MDA-MB-231, HCT-8, MCF-7, and HEK293 cells were seeded at 8000-10000 cells (100 μl) in white 96-well plates and pre-incubate the plate for 24 h under standard cell culture conditions, respectively. Then the cells were exposed to the different inhibitors with various concentrations for 72 h. Finally, 10 μl of CCK-8 kit solution was added to each well and incubated for 3-4 hours under standard cell culture conditions, and the 96 well plates were measured the absorbance at 450 nm using Perkin-Elmer Wallac Victor ^3V 1420 multi label plate reader (Perkin-Elmer, Wellesley, USA). EC50s were calculated using GraphPad Prizm statistical package with sigmoidal variable slope dose response curve fit.
(§2) Cell anti-proliferation assays were performed to determine the toxicity of these inhibitors. Several cell lines (MDA-MB-231, MCF-7, A549 and HCT-8) were incubated and then treated with varying concentrations of the inhibitors for 72 h, respectively. […] These compounds were further evaluated against the control cell line HEK293 to test their toxicity with a non-cancerous cell line.

A549 = assay: Cytotoxicity / anti-proliferation assay (CCK-8), A549; conditions: Homo sapiens, 72 h, CCK-8 kit
Experimental: as §1, §2

HCT-8 = assay: Cytotoxicity / anti-proliferation assay (CCK-8), HCT-8; conditions: Homo sapiens, 72 h, CCK-8 kit
Experimental: as §1, §2

Which results are given for O=C(CCCCCCC(=O)Nc1ccccc1)NO [SAHA, N-hydroxy-N′-phenyl-octanediamide, reference compound]?
EC50 (MCF-7): 8.12 ± 4.98 µM; EC50 (A549): 19.3 ± 1.26 µM; EC50 (HCT-8): < 10 µM
